Results reported in PubChem BioAssay AID2685 (National Center for Advancing Translational Sciences (NCATS), 2010).
The other results are listed elsewhere or left out. Further columns of the screen follow, without active or inactive calls. The list favours compounds with an active or inconclusive main result. Words in brackets tell the shape of the fitted curve; partial curves, single points and poor fits give uncertain potencies.

Assay: qHTS Assay for Lipid Storage Modulators in Drosophila S3 Cells;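 as to cell number change: cells counted by Cell Tracker Red CMTPX staining in the red channel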
Details: BODIPY lipid droplet fluorescence, 18-24 h; for cell number change: measured here: cell count max response, cells fed with added oleic acid
Summary of the method: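 Laser-scanning cytometry quantifies lipid droplet accumulation (500–530 nm total intensity; droplet/cell object ratio) in oleic acid-fed (400 uM added) Drosophila S3 cells treated with a concentration series. 20 uM Triacsin C defined 100% inhibition.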

[1] = measured here: lipid fluorescence (Fed channel) AC50, cells fed with added oleic acid
[2] = measured here: cell number channel AC50, cells fed with added oleic acid

| SMILES | cell number change | AC50 [1] | AC50 [2] |
| --- | --- | --- | --- |
| Cc1cc(C)nc(N2CCC(C(=O)NC3CCCc4ccccc43)CC2)n1 (stereo unspecified) | 18.1% | 32.6 µM [falling, single point] | – |
| CC(C)c1cc[n+](-c2nc([O-])sc2C=O)cc1 | 5.8% | 6.51 µM [falling, single point] | – |
| COc1ccccc1CNC(=O)Cn1cnc2ccccc2c1=O | 4.04% | 4.61 µM [falling, single point] | – |
| O=C(CCN1C(=O)c2ccc([N+](=O)[O-])cc2C1=O)Nc1ccc(O)cc1C(=O)O | -5.18% | – | – |
| Cc1ccc(C(=O)N2CCCC2)cc1Br | 0.26% | 0.184 µM [falling, full curve, poor fit] | 0.00517 µM [falling, full curve, poor fit] |
| Cc1sc2nc(SCC(=O)N3CC(C)OC(C)C3)n(C)c(=O)c2c1C (stereo unspecified) | -12.6% | – | – |
| CC1CC(C)CN(C(=O)c2ccc(C#N)cc2)C1 (stereo unspecified) | -23.8% | 13 µM [falling, partial curve] | – |
| Cc1cc(NC(=O)CN2CCCCCCC2)no1 | -0.52% | 0.00651 µM [falling, full curve, poor fit] | – |
| O=[N+]([O-])c1cccc(NC(=S)N2CCN(c3ccccn3)CC2)c1 | 56.9% | 29.1 µM [rising, single point] | 20.6 µM [rising, single point] |
| COc1ccc(S(=O)(=O)N2CCc3cc4c(cc3C2C)OCCCO4)cc1 (stereo unspecified) | -21.5% | 0.58 µM [falling, single point] | – |
| Cc1ccc(C)c(C(=O)CSc2nc(N)cc(=O)[nH]2)c1 | -22.5% | – | – |
| CCn1cc(C(=O)N[C@@H](CC(C)C)C(=O)NCCCn2ccnc2)c(=O)c2cc3c(cc21)OCO3 | 0.472% | 29.1 µM [rising, partial curve] | 3.26 µM [rising, single point] |
| Cc1csc(NC(=O)CSc2ncc(-c3ccccc3)[nH]2)n1 | -35.2% | 8.2 µM [falling, single point] | 0.103 µM [falling, single point] |
| O=C(N1CCOCC1)N1CCCC(c2nc(-c3cccs3)no2)C1 (stereo unspecified) | 4.1% | – | – |
| Cc1ccccc1NC(=O)NCCCN1CCN(c2ccccc2)CC1 | 111% | 2.91 µM [rising, partial curve] | 7.31 µM [rising, partial curve] |
| COCc1c(C)cc(C)c(/C=N/O)c1C | 33.6% | 20.6 µM [rising, single point] | 6.51 µM [rising, partial curve, poor fit] |

Taken from above:
For AC50 [1], Cc1csc(NC(=O)CSc2ncc(-c3ccccc3)[nH]2)n1 is listed with 8.2 µM [falling, single point]
For AC50 [2], O=[N+]([O-])c1cccc(NC(=S)N2CCN(c3ccccn3)CC2)c1 is listed with 20.6 µM [rising, single point]

The list continues:

| SMILES | cell number change | AC50 [1] | AC50 [2] |
| --- | --- | --- | --- |
| CCCC(C(=O)NCc1ccco1)N(Cc1ccco1)C(=O)CNS(=O)(=O)c1ccccc1 (stereo unspecified) | 13.4% | – | – |
| C/C(CC(C)C)=N\NC(=O)Nc1ccccc1 | -25.8% | 18.4 µM [falling, single point] | – |
| O=C(NCCCCc1ccccc1)c1ccccc1F | -10.2% | 5.8 µM [falling, full curve] | – |
| C1CCC2(CC1)OCC1(CO2)COC2(CCCCC2)OC1 | -7.16% | 0.651 µM [falling, full curve, poor fit] | – |
| CC(C)NS(=O)(=O)c1ccc(OCC(=O)Nc2ccc3c(c2)OCO3)c(Cl)c1 | 93.2% | 0.0731 µM [rising, full curve] | 18.4 µM [rising, partial curve, poor fit] |
| CC(=O)Oc1ccc2c(c1)OC(c1ccccc1)CC21CC(C)(C)NC(=S)N1 (stereo unspecified) | 14.9% | 29.1 µM [rising, single point] | – |
| O=C(O)CCC(=O)N1N=C(c2ccc(Br)cc2)CC1c1cccc(Br)c1 (stereo unspecified) | -17.8% | – | – |
| CCCN1C(=O)c2ccc(C(=O)Nc3cc(C)on3)cc2C1=O | – | 23.1 µM [rising, single point] | – |
| Cc1cccc(Nc2ccc([N+](=O)[O-])cc2C(=O)O)c1 | 28.4% | – | – |
| COc1ccc(NC(=O)c2c(OC)cccc2OC)c(OC)c1 | -2.5% | 29.1 µM [rising, single point] | – |
| COc1ccc(C(=O)Nc2ccc(Cl)cn2)cc1S(=O)(=O)N1CCCC1 | 40.4% | 1.03 µM [rising, partial curve, poor fit] | 9.2 µM [rising, partial curve, poor fit] |
| CC(C(=O)NC1C=CS(=O)(=O)C1)N1C(=O)/C(=C/c2ccc(Cl)cc2)SC1=S (stereo unspecified) | -14.1% | 29.1 µM [rising, single point] | – |
| O=C(NCC(=O)N1CCOCC1)c1ccc(Br)cc1 | 11.1% | 18.4 µM [rising, partial curve, poor fit] | – |
| CCOC(=O)N1CCN(C(=O)c2ccc3nc(-c4ccccc4)c(-c4ccccc4)nc3c2)CC1 | – | 4.61 µM [rising, single point] | – |
| COc1ccccc1NC(=S)N(CCc1nc2cc(C)c(C)cc2[nH]1)Cc1cccnc1 | -7.76% | 1.3 µM [falling, full curve] | – |
